Assay results published in patent US20250154144A1 (CHILDREN'S HOSPITAL MEDICAL CENTER, priority 2021, published 2025).
At least one compound was matched to its structure with a doubt left.

Tested on: THP1 cells
Assay: Combination drug screening, Cell Titer Glo, 10 × 10 matrix, THP1 cells
Assay type: cell-based

Structure (SMILES): CCc1nc(C(N)=O)c(Nc2ccc(N3CCC(N4CCN(C)CC4)CC3)c(OC)c2)nc1NC1CCOCC1 [Gilteritinib hemifumarate, Gilteritinib, reference compound]
- Comments (starting conc. 500 nM, with (+)-BAY-1251152 starting conc. 1000 nM): Synergism is more
- Comments (starting conc. 500 nM, with Azacitidine (5-Azacytidine) starting conc. 20000 nM): Synergistic at both
- Comments (starting conc. 500 nM, with Palbociclib starting conc. 10000 nM): Synergistic at both
- Comments (starting conc. 500 nM, with Prednisolone starting conc. 10000 nM): Antagonistic
- Comments (starting conc. 500 nM, with TNO-155 starting conc. 10000 nM): Antagonistic
- Comments (starting conc. 500 nM, with Venetoclax (ABT-199) starting conc. 2000 nM): Synergistic; Optimal
- Comments (starting conc. 500 nM, with Venetoclax (ABT-199) starting conc. 20000 nM): Synergistic; Optimal
- Comments (starting conc. 20000 nM, with (+)-BAY-1251152 starting conc. 1000 nM): Synergism is more
- Comments (starting conc. 20000 nM, with Azacitidine (5-Azacytidine) starting conc. 20000 nM): Synergistic at both
- Comments (starting conc. 20000 nM, with Palbociclib starting conc. 10000 nM): Synergistic at both
- Comments (starting conc. 20000 nM, with Prednisolone starting conc. 10000 nM): Synergistic
- Comments (starting conc. 20000 nM, with TNO-155 starting conc. 10000 nM): Synergistic
- Comments (starting conc. 20000 nM, with Venetoclax (ABT-199) starting conc. 2000 nM): Synergistic; Optimal
- Comments (starting conc. 20000 nM, with Venetoclax (ABT-199) starting conc. 20000 nM): Synergistic; Optimal
